This is one part of the list. The data scatter; read single values as rough.

Sequences of proteins named here, by UniProt entry; tags and fusion partners are left off. A change or cut given only in a name is not applied to a line headed by its entry. Residues count along the entry.
UniProt Q13433: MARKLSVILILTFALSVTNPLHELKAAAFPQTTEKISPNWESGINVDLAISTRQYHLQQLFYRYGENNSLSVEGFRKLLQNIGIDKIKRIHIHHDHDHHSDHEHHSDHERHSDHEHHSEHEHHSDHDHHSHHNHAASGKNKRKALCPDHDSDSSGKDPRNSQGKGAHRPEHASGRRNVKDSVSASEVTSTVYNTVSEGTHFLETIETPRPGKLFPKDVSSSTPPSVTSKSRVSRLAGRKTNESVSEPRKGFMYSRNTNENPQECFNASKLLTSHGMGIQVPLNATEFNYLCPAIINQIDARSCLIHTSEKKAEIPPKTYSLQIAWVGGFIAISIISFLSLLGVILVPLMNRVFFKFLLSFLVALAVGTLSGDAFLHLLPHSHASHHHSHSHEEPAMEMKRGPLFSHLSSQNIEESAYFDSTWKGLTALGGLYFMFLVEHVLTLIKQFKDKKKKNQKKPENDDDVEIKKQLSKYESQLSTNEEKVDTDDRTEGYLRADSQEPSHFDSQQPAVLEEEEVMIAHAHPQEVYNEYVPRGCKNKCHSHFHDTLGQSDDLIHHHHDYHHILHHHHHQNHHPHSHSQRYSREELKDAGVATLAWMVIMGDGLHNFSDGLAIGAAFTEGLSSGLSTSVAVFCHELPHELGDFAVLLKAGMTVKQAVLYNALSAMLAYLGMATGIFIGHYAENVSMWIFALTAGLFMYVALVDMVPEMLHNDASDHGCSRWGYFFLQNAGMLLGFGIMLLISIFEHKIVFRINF
UniProt Q92540, 345-365: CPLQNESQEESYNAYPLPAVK
UniProt Q9H4L7: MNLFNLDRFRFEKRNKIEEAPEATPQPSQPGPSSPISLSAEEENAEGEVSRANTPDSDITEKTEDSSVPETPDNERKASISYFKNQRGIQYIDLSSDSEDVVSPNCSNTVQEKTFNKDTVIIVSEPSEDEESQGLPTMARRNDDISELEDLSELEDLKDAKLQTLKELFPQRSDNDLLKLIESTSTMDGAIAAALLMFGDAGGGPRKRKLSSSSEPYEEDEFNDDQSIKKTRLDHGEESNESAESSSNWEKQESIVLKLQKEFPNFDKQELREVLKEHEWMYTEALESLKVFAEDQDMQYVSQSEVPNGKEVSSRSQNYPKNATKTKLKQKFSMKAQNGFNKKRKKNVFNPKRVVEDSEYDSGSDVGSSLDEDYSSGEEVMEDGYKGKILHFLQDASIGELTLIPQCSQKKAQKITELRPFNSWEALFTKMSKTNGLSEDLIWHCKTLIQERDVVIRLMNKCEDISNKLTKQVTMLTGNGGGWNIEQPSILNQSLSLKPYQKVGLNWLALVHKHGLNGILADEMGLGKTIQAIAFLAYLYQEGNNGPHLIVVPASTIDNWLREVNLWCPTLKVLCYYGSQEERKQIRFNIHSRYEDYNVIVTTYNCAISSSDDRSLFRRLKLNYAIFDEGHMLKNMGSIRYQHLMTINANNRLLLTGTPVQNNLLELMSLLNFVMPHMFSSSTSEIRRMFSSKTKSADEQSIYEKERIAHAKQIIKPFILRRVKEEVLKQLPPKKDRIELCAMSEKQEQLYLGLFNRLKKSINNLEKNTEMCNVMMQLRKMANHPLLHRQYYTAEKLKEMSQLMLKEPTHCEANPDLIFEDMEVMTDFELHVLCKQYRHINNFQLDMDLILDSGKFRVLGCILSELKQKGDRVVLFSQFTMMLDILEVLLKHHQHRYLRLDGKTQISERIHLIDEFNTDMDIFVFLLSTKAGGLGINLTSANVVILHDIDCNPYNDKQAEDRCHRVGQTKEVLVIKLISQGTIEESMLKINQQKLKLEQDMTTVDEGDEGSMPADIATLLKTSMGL
UniProt Q9H3E2: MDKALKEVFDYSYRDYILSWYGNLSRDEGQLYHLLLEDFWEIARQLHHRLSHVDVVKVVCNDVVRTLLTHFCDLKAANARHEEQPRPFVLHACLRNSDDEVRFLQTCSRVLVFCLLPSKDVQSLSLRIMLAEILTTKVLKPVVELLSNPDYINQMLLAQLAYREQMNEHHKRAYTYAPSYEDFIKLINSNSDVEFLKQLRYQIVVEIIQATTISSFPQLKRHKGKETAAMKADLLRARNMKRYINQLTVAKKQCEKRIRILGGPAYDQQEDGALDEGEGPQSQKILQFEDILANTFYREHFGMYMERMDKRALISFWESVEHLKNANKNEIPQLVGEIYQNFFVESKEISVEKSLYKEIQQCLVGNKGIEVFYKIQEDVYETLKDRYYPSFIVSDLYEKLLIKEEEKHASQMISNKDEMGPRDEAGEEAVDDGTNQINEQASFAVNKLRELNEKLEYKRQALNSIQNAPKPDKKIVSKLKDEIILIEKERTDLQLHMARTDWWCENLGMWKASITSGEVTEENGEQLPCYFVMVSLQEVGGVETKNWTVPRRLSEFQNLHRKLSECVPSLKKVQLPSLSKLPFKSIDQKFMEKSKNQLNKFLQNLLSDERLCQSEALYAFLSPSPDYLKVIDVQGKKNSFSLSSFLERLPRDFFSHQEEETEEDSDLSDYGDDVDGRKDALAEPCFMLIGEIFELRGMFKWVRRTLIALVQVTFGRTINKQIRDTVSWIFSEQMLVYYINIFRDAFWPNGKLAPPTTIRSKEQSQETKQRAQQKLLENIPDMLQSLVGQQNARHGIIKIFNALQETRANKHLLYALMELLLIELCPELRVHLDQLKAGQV
UniProt Q8N0X7: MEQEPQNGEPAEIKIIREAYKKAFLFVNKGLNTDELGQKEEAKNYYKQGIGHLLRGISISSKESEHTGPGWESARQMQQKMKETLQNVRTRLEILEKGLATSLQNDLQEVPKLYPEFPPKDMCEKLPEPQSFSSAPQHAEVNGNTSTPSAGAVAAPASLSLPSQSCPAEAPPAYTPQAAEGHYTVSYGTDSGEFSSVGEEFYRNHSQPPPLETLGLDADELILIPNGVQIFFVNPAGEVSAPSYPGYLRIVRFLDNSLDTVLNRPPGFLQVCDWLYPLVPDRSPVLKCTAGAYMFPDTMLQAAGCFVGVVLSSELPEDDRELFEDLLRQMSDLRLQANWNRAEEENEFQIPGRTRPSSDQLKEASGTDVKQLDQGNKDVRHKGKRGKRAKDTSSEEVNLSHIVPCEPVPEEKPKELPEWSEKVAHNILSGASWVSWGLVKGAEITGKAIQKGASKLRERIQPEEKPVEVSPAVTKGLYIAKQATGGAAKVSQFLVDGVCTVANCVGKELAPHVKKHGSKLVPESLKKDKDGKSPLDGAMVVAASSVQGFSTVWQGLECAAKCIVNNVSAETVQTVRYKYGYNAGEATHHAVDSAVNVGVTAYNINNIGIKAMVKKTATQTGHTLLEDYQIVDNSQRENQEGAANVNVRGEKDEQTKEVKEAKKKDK
UniProt Q9Y2P4: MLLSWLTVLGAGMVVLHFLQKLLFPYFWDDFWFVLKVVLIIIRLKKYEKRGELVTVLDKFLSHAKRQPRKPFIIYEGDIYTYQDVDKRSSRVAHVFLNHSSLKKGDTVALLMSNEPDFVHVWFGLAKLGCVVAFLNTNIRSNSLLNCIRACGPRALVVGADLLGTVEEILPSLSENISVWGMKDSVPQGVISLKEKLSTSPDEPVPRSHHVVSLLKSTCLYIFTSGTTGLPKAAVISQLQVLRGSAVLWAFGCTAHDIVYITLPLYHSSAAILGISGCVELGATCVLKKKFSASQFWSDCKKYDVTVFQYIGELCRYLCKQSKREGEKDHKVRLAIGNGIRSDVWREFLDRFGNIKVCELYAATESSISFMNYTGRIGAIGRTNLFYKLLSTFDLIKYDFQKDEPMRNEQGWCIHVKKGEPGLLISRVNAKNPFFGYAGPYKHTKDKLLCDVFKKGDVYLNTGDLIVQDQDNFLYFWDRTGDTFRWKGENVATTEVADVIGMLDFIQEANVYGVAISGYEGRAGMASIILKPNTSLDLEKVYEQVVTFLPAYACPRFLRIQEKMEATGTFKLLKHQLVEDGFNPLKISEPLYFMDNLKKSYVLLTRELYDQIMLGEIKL
UniProt Q99523, whole entry, looked up: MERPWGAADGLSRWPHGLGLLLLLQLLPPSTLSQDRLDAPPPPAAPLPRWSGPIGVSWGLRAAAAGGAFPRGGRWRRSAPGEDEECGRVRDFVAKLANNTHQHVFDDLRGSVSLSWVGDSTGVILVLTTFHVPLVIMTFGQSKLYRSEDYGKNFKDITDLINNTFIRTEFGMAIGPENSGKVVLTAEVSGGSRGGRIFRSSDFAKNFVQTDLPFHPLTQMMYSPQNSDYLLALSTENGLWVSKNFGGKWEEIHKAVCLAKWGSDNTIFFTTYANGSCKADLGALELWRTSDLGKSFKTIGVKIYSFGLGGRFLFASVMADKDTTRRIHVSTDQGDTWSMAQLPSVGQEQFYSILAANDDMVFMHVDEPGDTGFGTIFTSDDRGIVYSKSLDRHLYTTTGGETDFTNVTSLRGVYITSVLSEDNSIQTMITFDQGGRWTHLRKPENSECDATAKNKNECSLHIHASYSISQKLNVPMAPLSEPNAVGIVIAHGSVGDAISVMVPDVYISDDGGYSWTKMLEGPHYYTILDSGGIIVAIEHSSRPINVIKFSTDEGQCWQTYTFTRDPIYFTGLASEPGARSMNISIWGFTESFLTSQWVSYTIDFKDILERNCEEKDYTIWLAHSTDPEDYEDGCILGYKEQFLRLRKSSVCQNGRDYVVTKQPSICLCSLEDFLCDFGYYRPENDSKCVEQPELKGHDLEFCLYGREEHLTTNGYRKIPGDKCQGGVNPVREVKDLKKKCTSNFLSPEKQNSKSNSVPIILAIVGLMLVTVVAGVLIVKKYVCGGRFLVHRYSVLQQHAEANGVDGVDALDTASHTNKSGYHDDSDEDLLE
UniProt Q07617: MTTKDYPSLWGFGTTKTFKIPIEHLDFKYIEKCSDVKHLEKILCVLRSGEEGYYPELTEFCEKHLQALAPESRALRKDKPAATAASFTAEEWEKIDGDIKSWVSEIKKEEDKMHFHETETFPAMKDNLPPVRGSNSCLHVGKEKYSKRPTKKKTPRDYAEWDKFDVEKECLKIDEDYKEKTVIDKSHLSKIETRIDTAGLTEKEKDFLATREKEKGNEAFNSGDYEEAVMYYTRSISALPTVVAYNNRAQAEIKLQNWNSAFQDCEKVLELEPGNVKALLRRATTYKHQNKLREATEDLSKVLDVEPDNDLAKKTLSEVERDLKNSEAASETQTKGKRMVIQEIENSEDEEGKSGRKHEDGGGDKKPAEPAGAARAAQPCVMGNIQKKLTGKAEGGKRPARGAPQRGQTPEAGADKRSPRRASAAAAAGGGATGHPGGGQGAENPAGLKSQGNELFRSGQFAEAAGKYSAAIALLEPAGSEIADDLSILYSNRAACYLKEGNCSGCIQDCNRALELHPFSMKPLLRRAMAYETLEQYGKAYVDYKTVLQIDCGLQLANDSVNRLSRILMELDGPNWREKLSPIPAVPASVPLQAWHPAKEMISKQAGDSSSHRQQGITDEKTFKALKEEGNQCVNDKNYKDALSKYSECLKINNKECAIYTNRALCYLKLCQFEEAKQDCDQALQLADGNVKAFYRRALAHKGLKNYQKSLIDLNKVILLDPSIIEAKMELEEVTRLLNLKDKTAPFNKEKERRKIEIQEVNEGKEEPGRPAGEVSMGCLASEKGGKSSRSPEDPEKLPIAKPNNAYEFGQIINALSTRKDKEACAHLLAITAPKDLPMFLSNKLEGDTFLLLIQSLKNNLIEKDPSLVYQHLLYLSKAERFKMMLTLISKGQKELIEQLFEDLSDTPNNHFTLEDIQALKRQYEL
UniProt Q15796: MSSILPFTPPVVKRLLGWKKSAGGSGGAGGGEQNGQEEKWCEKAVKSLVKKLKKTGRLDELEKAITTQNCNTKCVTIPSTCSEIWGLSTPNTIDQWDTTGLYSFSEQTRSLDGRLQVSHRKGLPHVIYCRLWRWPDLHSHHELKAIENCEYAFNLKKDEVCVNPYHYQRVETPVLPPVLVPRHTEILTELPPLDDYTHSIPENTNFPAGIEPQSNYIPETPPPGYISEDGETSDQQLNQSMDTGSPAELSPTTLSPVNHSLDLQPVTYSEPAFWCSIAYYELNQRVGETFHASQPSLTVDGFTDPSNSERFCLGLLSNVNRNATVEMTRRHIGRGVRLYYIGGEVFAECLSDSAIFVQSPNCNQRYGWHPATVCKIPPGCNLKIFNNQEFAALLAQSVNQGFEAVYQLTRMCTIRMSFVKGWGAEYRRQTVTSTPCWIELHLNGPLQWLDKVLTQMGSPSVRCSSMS
UniProt Q9UBX3: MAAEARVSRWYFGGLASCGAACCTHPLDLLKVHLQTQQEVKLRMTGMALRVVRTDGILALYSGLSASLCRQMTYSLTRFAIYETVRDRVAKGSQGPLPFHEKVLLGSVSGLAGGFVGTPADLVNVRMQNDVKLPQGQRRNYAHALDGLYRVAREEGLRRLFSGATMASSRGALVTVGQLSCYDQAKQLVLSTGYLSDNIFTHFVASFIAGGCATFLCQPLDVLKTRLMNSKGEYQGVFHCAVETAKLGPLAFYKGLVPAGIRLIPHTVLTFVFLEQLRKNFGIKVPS

Compound in the first assay: ClCC(=O)N[C@@H]1CCCc2ccccc12
Nature of the assay: log2 mean competition ratio of IA-DTB cysteine labelling (DMSO/compound) (log2 ratio); higher = stronger cysteine engagement by compound. As to conditions: 50 µM; treatment time: 4 h; cell line lysate: HEK293T. As for the experimental part: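 IA-DTB competitive cysteine chemoproteomics in HEK293T RIPA lysate. Lysates were treated with compound 29 or 30 at 50 or 200 µM for 4 h, then IA-DTB (500 µM, 1 h), trypsin-digested, NeutrAvidin-enriched and analysed by diaPASEF. Competition ratio = intensity DMSO / intensity compound (n=4 treated, n=64 DMSO); binding: mean log2 CR ≥ 1 and p ≤ 0.05 plus QC filters. Target is the cysteine site.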
Consider SLC39A6 C146 (UniProt Q13433), for which the “log2 mean competition ratio” value amounted to 0.0598.

For SMG7 C345 (UniProt Q92540), the “log2 mean competition ratio” value was -0.126.

In the case of SMARCAD1 C568 (UniProt Q9H4L7), the “log2 mean competition ratio” value is -0.0116.

On to SLC25A1 C262 (UniProt P53007), for which the “log2 mean competition ratio” value came out at 0.357.

Turning to SND1 C152 (UniProt Q7KZF4), the “log2 mean competition ratio” value worked out at 0.0195.

As for SNX25 C60 (UniProt Q9H3E2), the “log2 mean competition ratio” value is -0.185.

In the case of SLC25A6 C257 (UniProt P12236), the “log2 mean competition ratio” value came to 0.39.

SMPD4 C68 (UniProt Q9NXE4): the “log2 mean competition ratio” value is -0.0446.

As for SMURF2 C151, the “log2 mean competition ratio” value was 0.397.

SPART C562 (UniProt Q8N0X7): the “log2 mean competition ratio” value is -0.0703.

Turning to SLC27A4 C323 (UniProt Q6P1M0), the “log2 mean competition ratio” value was found to be 0.0893.

As for SLC27A6 C147 (UniProt Q9Y2P4), the “log2 mean competition ratio” value was 0.124.

SORT1 C740 (UniProt Q99523): the “log2 mean competition ratio” value turned out to be 0.0508.

For the target SPAG1 C657 (UniProt Q07617), the “log2 mean competition ratio” value is 0.0444.

With SMAD2 C161 (UniProt Q15796), the “log2 mean competition ratio” value stood at 0.663.

With SMC4 C110, the “log2 mean competition ratio” value is 0.0112.

Take SKP2 C423 (UniProt Q13309): the “log2 mean competition ratio” value is -0.153.

Turning to SNX27 C30 (UniProt Q96L92), the “log2 mean competition ratio” value is -0.172.

As to SLC25A10 C181 (UniProt Q9UBX3), the “log2 mean competition ratio” value was found to be 0.0211.

Take SOCS6 C342 (UniProt O14544): the “log2 mean competition ratio” value was -0.324.

The same assay, now with this note: 200 µM; treatment time: 4 h; cell line lysate: HEK293T.
In the case of SLC39A6 C146 (UniProt Q13433), the “log2 mean competition ratio” value is -0.205.

For the target SMG7 C345 (UniProt Q92540), the “log2 mean competition ratio” value was 0.0412.

For SMARCAD1 C568 (UniProt Q9H4L7), the “log2 mean competition ratio” value is -0.269.

On to SLC25A1 C262 (UniProt P53007), for which the “log2 mean competition ratio” value was 0.137.

As for SND1 C152 (UniProt Q7KZF4), the “log2 mean competition ratio” value is -0.0957.

Regarding SNX25 C60 (UniProt Q9H3E2), the “log2 mean competition ratio” value is 0.298.

As to SLC25A6 C257 (UniProt P12236), the “log2 mean competition ratio” value amounted to 0.487.

As to SMPD4 C68 (UniProt Q9NXE4), the “log2 mean competition ratio” value was 0.0505.

Consider SMURF2 C151, for which the “log2 mean competition ratio” value was 0.301.

Regarding SPART C562 (UniProt Q8N0X7), the “log2 mean competition ratio” value is -0.246.

With SLC27A4 C323 (UniProt Q6P1M0), the “log2 mean competition ratio” value is -0.146.

In the case of SLC27A6 C147 (UniProt Q9Y2P4), the “log2 mean competition ratio” value was determined as 0.0291.

Regarding SORT1 C740 (UniProt Q99523), the “log2 mean competition ratio” value was found to be 0.252.

For the target SPAG1 C657 (UniProt Q07617), the “log2 mean competition ratio” value is -0.124.

Take SMAD2 C161 (UniProt Q15796): the “log2 mean competition ratio” value came out at 0.0965.

As for SMC4 C110, the “log2 mean competition ratio” value is -0.086.

As to SKP2 C423 (UniProt Q13309), the “log2 mean competition ratio” value was 0.0249.

For SNX27 C30 (UniProt Q96L92), the “log2 mean competition ratio” value was -0.197.

Turning to SLC25A10 C181 (UniProt Q9UBX3), the “log2 mean competition ratio” value was 0.0704.

As for SOCS6 C342 (UniProt O14544), the “log2 mean competition ratio” value turned out to be 0.0767.
